From PubChem BioAssay record AID1159506 (NCATS, 2015).

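Luminescence from an EWS-FLI1 target-promoter (NR0B1) reporter, set against a CMV-promoter reporter, two days after silencing single genes in TC32 Ewing sarcoma cells.
Each siRNA was applied at 20 nM.
A z-score of the log NR0B1-over-CMV signal, less the median of siRNAs with the same seed; more negative means a stronger specific loss of the NR0B1 reporter.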

This is part of the screen; most of the strongest results are not listed here.
Sequences are the guide (antisense) strand, without overhang.

With AUCGUUAUCAAGACAGAUC against CENPC the assay gave seed-corrected z-score -0.1226.
With UACAUGAUCAGCACGCAGC against CALY the assay gave seed-corrected z-score 0.4493.
With AGUGGUAGAACCUCAUUCC against TMEM14C the assay gave seed-corrected z-score -1.838.
With UCUGAUCCCAGAUCAUAAG against GZMB the assay gave seed-corrected z-score -0.4444.
With UACAGGACAGCGAAACUCU against C8G the assay gave seed-corrected z-score -1.177.
With UACUCGGAUACCUUGAGGC against WDR91 the assay gave seed-corrected z-score -0.2371.
With AGCAUGAUGAGGUAAUAGC against FA2H the assay gave seed-corrected z-score 0.08318.
With AUUACUGUUAGAUCCGUUG against ZCWPW1 the assay gave seed-corrected z-score 0.6876.
With UCUCUAUUGUCUUAAGUCC against SPATA5L1 the assay gave seed-corrected z-score 0.418.
With AAACUUCGAACUCCUGUUC against ABHD18 the assay gave seed-corrected z-score -0.5146.
With UGCGGAUGCAUUUCAGGGC against CLDN18 the assay gave seed-corrected z-score -0.06649.
With UAAUCGUCUGGGUAGUUGG against BMP1 the assay gave seed-corrected z-score -0.08341.
With UCCUUUAAAGGGCUUACCC against ZNF594 the assay gave seed-corrected z-score 0.6352.
With AUACUCAUCAAAACCAAUG against SNRPE the assay gave seed-corrected z-score -1.917.
With UUUGUUCAAACAUAGCUCA against DAZAP2 the assay gave seed-corrected z-score 0.5432.
With UCAAUGAUGACCAAUACGG against PSMD7 the assay gave seed-corrected z-score -0.8771.
With UAGGUAUCAAAAACUUCUC against GNPAT the assay gave seed-corrected z-score -0.08116.
With UACGUGCAUUUGACAGUUC against TRIP11 the assay gave seed-corrected z-score -0.3156.
With UUCAUGUCGACCUCGGUUC against IMP4 the assay gave seed-corrected z-score -1.071.
With UGAUAAUACAGUAAUAGAG against ILDR2 the assay gave seed-corrected z-score -1.009.
With UGUGCGUACGGCAUGACCU against OLIG2 the assay gave seed-corrected z-score -0.7501.
With UAUUCCUGAUAAACAAUUC against EXOSC6 the assay gave seed-corrected z-score 0.218.
With UAUCAGAUCUACAAUUUCC against SULT1C2P1 the assay gave seed-corrected z-score 0.6315.
With UACUAAGUCAUCUUUGUCG against VPS37A the assay gave seed-corrected z-score -0.06329.
With UUCGUUCUCAGCUAGCAGG against RPUSD2 the assay gave seed-corrected z-score 0.3168.
With UUUGAUUGCCGAGAUAAGC against PAPPA2 the assay gave seed-corrected z-score 0.2367.
With ACAGCUACAAUCACUAUAC against NDUFC1 the assay gave seed-corrected z-score 0.8338.
With UUUAGUACAAGUCGAGUGC against KCTD4 the assay gave seed-corrected z-score 0.2527.
With UUCAUUUUCAGUCCAUACU against PA2G4 the assay gave seed-corrected z-score -0.3962.
With UGUAUGUCAUCUGUAGGCC against THADA the assay gave seed-corrected z-score 0.06627.
With ACUGACAUAAGUUCAGAUC against TIGAR the assay gave seed-corrected z-score 0.4939.
With AAUAGACCCAUGGGAAUUG against TMEM100 the assay gave seed-corrected z-score 1.311.

Repeated from the top, 2 entries:

AUCGUUAUCAAGACAGAUC against CENPC gave seed-corrected z-score -0.1226.
UACAUGAUCAGCACGCAGC against CALY gave seed-corrected z-score 0.4493.